# Experimental data taken from patent US4333941A, “Inhibition of enveloped viruses with phenyl ketones” (The Dow Chemical Company, priority 1977, dated 1982).
# Counter-ions that a name gives are not always drawn. At least one structure is not confirmed: it was looked up by name or label, or the drawing left a doubt.
# Legend:
# HSV-2 [1] = test system: HSV-2
# [2] = test system: acute herpetic gingivostomatitis lesions; details: solutions containing 0.5 percent; cited from earlier work
# HSV-1, Stohr strain = assay: In vivo treatment of HSV-1 skin infection in guinea pigs (Example 5); details: days 5 to 6; 2 percent in 5 percent ethanol, topical hourly for four days
# HSV-2 [3] = assay: Inactivation of one strain of HSV-2 (Example 3); details: 250 μM
# [4] = cited from earlier work
# HSV-1 = details: occlusive bandage, repeated every 6 hours
smiles,measurement,setting,value
"CCCCOc1ccc(C(=O)CCN2CCCCC2)cc1 [Dyclonine . HCl, 4-n-butoxy-β-(1-piperidyl)-propiophenone hydrochloride]",genital HSV-2 lesions on the fifth day,"HSV-2 [1]; group A, two days after cessation of treatment, 2 percent topical",a single lesion was noted in a single animal
same,genital HSV-2 lesions until the fifth day,"HSV-2 [1]; group A: begun one hour after inoculation, two hour intervals, three days, 2 percent topical",no lesions were observed in any of the animals until the fifth day
same,genital HSV-2 lesions on days 6 and 7,"HSV-2 [1]; group A, 2 percent topical","this single lesion continued, with no lesions or symptoms of infection in the other four animals"
same,"lesions or symptoms of genital HSV-2 infection, seven day observation","HSV-2 [1]; group B: begun one hour after inoculation, four hour intervals, through fifth day, 2 percent topical","no lesions or symptoms of genital HSV-2 infection were observed throughout the seven day observation, with the exception of a lesion which appeared on one animal on the fifth day"
same,lesion by the sixth day,"HSV-2 [1]; group B, 2 percent topical",no longer observable by the sixth day
same,lesion on the fifth day,"HSV-2 [1]; group B, 2 percent topical",a lesion which appeared on one animal
same,lesions on the fourth day,"HSV-2 [1]; group C: begun about 24 hours after inoculation, two-hour intervals through fifth day, 2 percent topical",a single lesion was noted on the fourth day
same,animals with infection on the fifth day,"HSV-2 [1]; group C, 2 percent topical",two animals evidenced infection
same,lesions on the sixth and seventh days,"HSV-2 [1]; group C, 2 percent topical","only a single, borderline lesion was observable"
same,"spreading, genital swelling, exudation in treated animals with a lesion","HSV-2 [1]; groups A, B and C, versus control animals","no evidence of the spreading, genital swelling, exudation, etc. observed in control animals"
same,anesthesia of acute herpetic gingivostomatitis lesions,[2],adequate anesthesia
same,herpes lesions,"HSV-1, Stohr strain",no lesions were noted
same,inactivation of HSV-2,HSV-2 [3],Greater than fifty percent
same,anesthetic effects,"[4]; intravenous, up to 7 mg/kg",no notable anesthetic effects
same,anesthetic effect,"[4]; oral, up to about 17 mg/kg",no notable anesthetic effect
same,antiviral effects,HSV-1,Antiviral effects were observed
